Data taken from publication doi:10.1101/2020.08.17.253450.
These are yes or no findings as the source states them, for the method shown. Some binding calls cover weakened binding; strength is not graded here.

By UniProt entry, the sequences of proteins in these tests, tags left out.
UniProt O00399: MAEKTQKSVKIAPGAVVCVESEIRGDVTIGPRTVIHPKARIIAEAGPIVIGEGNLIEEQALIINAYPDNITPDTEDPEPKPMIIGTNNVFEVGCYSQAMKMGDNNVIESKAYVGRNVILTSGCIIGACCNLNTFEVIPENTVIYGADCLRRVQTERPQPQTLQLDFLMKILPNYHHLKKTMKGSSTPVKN

Biological target: T1, human TMEM39A second cytoplasmic loop domain (a.a. 337-420) (human) (UniProt Q9NV64)
T1 sequence: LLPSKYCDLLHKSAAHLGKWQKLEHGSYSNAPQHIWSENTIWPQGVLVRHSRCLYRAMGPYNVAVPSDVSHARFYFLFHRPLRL
Experiment: two-hybrid

## Dctn6 full length (a.a. 1-190) (from UniProt O00399 1-190)
  binding: binds
